Publication PMC11165526

The chains behind the UniProt entries cited, without tags or fusion partners.
UniProt O95619: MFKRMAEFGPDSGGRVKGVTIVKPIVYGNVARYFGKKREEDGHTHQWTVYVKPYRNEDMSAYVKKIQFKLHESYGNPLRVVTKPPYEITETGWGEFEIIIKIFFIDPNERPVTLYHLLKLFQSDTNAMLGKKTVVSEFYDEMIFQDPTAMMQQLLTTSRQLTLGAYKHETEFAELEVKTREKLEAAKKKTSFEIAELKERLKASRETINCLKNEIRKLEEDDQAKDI

Target: YEATS4-V5-TurboID (human) (UniProt O95619)
Assay: proximity labelling; cells expressing YEATS4-V5-TurboID, 50 µM biotin for 30 min; lysis in RIPA-SDS buffer; streptavidin beads; mass spectrometry

binding: binds
B1: KANSL1, endogenous (protein, UniProt Q7Z3B3 1-1105)
chain: MAAMAPALTDAAAEAHHIRFKLAPPSSTLSPGSAENNGNANILIAANGTKRKAIAAEDPSLDFRNNPTKEDLGKLQPLVASYLCSDVTSVPSKESLKLQGVFSKQTVLKSHPLLSQSYELRAELLGRQPVLEFSLENLRTMNTSGQTALPQAPVNGLAKKLTKSSTHSDHDNSTSLNGGKRALTSSALHGGEMGGSESGDLKGGMTNCTLPHRSLDVEHTTLYSNNSTANKSSVNSMEQPALQGSSRLSPGTDSSSNLGGVKLEGKKSPLSSILFSALDSDTRITALLRRQADIESRARRLQKRLQVVQAKQVERHIQHQLGGFLEKTLSKLPNLESLRPRSQLMLTRKAEAALRKAASETTTSEGLSNFLKSNSISEELERFTASGIANLRCSEQAFDSDVTDSSSGGESDIEEEELTRADPEQRHVPLRRRSEWKWAADRAAIVSRWNWLQAHVSDLEYRIRQQTDIYKQIRANKGLIVLGEVPPPEHTTDLFLPLSSEVKTDHGTDKLIESVSQPLENHGAPIIGHISESLSTKSCGALRPVNGVINTLQPVLADHIPGDSSDAEEQLHKKQRLNLVSSSSDGTCVAARTRPVLSCKKRRLVRPNSIVPLSKKVHRNSTIRPGCDVNPSCALCGSGSINTMPPEIHYEAPLLERLSQLDSCVHPVLAFPDDVPTSLHFQSMLKSQWQNKPFDKIKPPKKLSLKHRAPMPGSLPDSARKDRHKLVSSFLTTAKLSHHQTRPDRTHRQHLDDVGAVPMVERVTAPKAERLLNPPPPVHDPNHSKMRLRDHSSERSEVLKHHTDMSSSSYLAATHHPPHSPLVRQLSTSSDSPAPASSSSQVTASTSQQPVRRRRGESSFDINNIVIPMSVAATTRVEKLQYKEILTPSWREVDLQSLKGSPDEENEEIEDLSDAAFAALHAKCEEMERARWLWTTSVPPQRRGSRSYRSSDGRTTPQLGSANPSTPQPASPDVSSSHSLSEYSHGQSPRSPISPELHSAPLTPVARDTPRHLASEDTRCSTPELGLDEQSVQPWERRTFPLAHSPQAECEDQLDAQERAARCTRRTSGSKTGRETEAAPTSPPIVPLKSRHLVAAATAQRPTHR
modifications: biotin (by proximity labelling)

Results are given in words; binding and its absence hold for the method and conditions named. In cells and extracts the contact can be indirect. A yes stands for co-enrichment or nearness to the bait. Other partners may have been found.
